Patent US7687054B2, “Biocompatible compounds for sustained release pharmaceutical drug delivery systems” (3M Innovative Properties Company, priority 1997, dated 2010)
Where a name gives a salt, the structure may show the parent alone. At least one compound was matched to its structure with a doubt left.

Assay: Glass transition temperature (Tg) by modulated DSC
Type: physicochemical
Conditions: PLA/Drug mole/mole ratio 0 (drug alone)
Procedure: Thermal properties (glass transition, melting, and degradation points; Tg, Tm, Tdeg) were determined utilizing a modulated differential scanning calorimeter (DSC) TA Instruments, New Castle, Del. A linear heating rate of 5° C./minute was applied, with a perturbation amplitude of ±1° C. every 60 seconds. […] The glass transition temperatures (Tg) reported were taken at the midpoint in the change in heat capacity over the step transition, and were evaluated using the reversing signal curve.
It will also be recognized that other biologically acceptable molecules (e.g., excipients) which are not the active agent, may be added to improve the matrix material's properties.

Work on `NC[C@H]1O[C@H](O[C@H]2[C@H](O)[C@@H](O[C@H]3O[C@H](CO)[C@@H](O)[C@H](N)[C@H]3O)[C@H](N)C[C@@H]2N)[C@H](O)[C@@H](O)[C@@H]1O` [Kanamycin sulfate] yielded a Tg of 49 °C.
